Test results reported in patent US20060149033A1, “IGF antagonist peptides” (GENENTECH, INC., priority 2001, published 2006).
For at least one compound, name, drawing or mass did not settle the structure. Bridge positions count the residues as written; N and C are the ends. Peptide text beside a SMILES is read from it.

Protein sequences, listed by entry. Tags and fused reporters are not part of them. Residues count along the entry.
UniProt P05019, 49-118 limits assumed: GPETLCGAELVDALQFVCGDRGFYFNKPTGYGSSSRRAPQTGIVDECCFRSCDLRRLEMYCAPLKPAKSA

Biological target: T1, IGF-1 (Homo sapiens, UniProt P05019)
T1 construct: made in house
Experiment: Affinity measurement by monovalent phage ELISA (phage competition IC50)
Conditions: peptide displayed monovalently on phage; concentration of IGF-1 that blocked 50% of peptide-phage binding to immobilized IGF-1
Experimental: E. coli XL1-Blue harboring phagemids were grown overnight at 37° C. in 2YT, 50 μg/mL carbenicillin, 10 μg/mL tetracycline and M13-VCS helper phage (10^10 phage/mL). Phage were harvested from the culture supernatant by precipitation twice with PEG/NaCl and resuspended in phosphate-buffered saline, 0.2% BSA, 0.1% TWEEN®-20 detergent (BSA blocking buffer). Phage concentrations were determined spectrophotometrically (λ268=1.2×10^8 M^−1 cm^−1).
MAXISORP™ immunoplates (96-well) were coated with capture target protein for 2 hours at room temperature (100 μL at 5 μg/mL in 50 mM carbonate buffer, pH 9.6). The plates were then blocked for 1 h with 0.2% BSA in phosphate-buffered saline (PBS) and washed eight times with PBS, 0.05% TWEEN®-20 detergent. Phage particles were serially diluted into BSA blocking buffer and 100 μL were transferred to coated wells. After 1 h, plates were washed eight times with PBS, 0.05% TWEEN®-20 detergent, incubated with 100 μL of 1:3000 horse radish peroxidase/anti-M13 antibody conjugate in BSA blocking buffer for 30 min, and then washed eight times with PBS, 0.05% TWEEN®-20 detergent and two times with PBS. Plates were developed using a tetramethylbenzidine substrate (TMB, Kirkegaard and Perry, Gaithersburg, Md.), stopped with 1.0 M H3PO4, and read spectrophotometrically at […].
Affinity Measurement by Monovalent Phage ELISA
Phage ELISAs were carried out as described above, using plates coated with IGF-1. Peptide-displaying phage were serially diluted and binding was measured to determine a phage concentration giving <50% of the ELISA signal at saturation.
A fixed, subsaturating concentration of peptide-phage was mixed with serial dilutions of IGF-1 and incubated for 1.0 hr and then transferred to assay plates coated with IGF-1. After 30-min incubation, the plates were washed and developed as described above. The binding affinities of the peptides for IGF-1 were determined as IC50 values where the IC50 value is defined as the concentration of IGF-1 that blocked 50% of the peptide-phage binding to the immobilized IGF-1.

| SMILES | IC50 [nM] |
| --- | --- |
| CSCC[C@H](NC(=O)[C@@H]1CSSC[C@H](NC(=O)[C@H](CCC(=O)O)NC(=O)[C@@H](N)Cc2ccccc2)C(=O)N[C@@H](CC(C)C)C(=O)N[C@@H]([C@@H](C)O)C(=O)N[C@@H](CO)C(=O)N[C@@H](C(C)C)C(=O)N[C@@H](CCC(=O)O)C(=O)N[C@@H](C)C(=O)N[C@@H](CC(C)C)C(=O)N[C@@H](CCCNC(=N)N)C(=O)NCC(=O)N1)C(=O)N[C@@H](Cc1ccc(O)cc1)C(=O)NCC(N)=O [Peptide F1-3, FECLTSVEALRGCMYG] (H-FECLTSVEALRGCMYG-NH2; disulfide 3-13; N-terminus and C-terminus assumed) | 286 |
| CC(C)C[C@@H]1NC(=O)[C@H](CC(=O)O)NC(=O)[C@H](CO)NC(=O)[C@H](C)NC(=O)[C@@H](NC(=O)CNC(=O)[C@@H](N)CC(C)C)CSSC[C@@H](C(=O)N[C@@H](Cc2c[nH]c3ccccc23)C(=O)N[C@@H](C)C(=O)NCC(=O)O)NC(=O)[C@H](Cc2ccc(O)cc2)NC(=O)[C@H](Cc2c[nH]c3ccccc23)NC(=O)[C@H](Cc2ccccc2)NC(=O)CNC(=O)[C@H](C)NC1=O [Peptide F2-1, LGCASDLAGFWYCWAG] (H-LGCASDLAGFWYCWAG-OH; disulfide 3-13 (inferred); N-terminus and C-terminus assumed) | 554 |
| CC(C)C[C@@H]1NC(=O)[C@H](CC(=O)O)NC(=O)[C@H](CC(=O)O)NC(=O)[C@H](C(C)C)NC(=O)[C@@H](NC(=O)[C@H](CCCNC(=N)N)NC(=O)[C@@H](N)Cc2c[nH]c3ccccc23)CSSC[C@@H](C(=O)N[C@@H](Cc2c[nH]c3ccccc23)C(=O)N[C@@H](C)C(=O)NCC(=O)O)NC(=O)[C@H](Cc2ccc(O)cc2)NC(=O)[C@H](CCC(N)=O)NC(=O)[C@H](Cc2ccccc2)NC(=O)CNC(=O)CNC1=O [Peptide F2-2, WRCVDDLGGFQYCWAG] (H-WRCVDDLGGFQYCWAG-OH; disulfide 3-13 (inferred); N-terminus and C-terminus assumed) | 319 |
